{"source": "PubChem BioAssay AID504804 – Drosophila RNAi Screening Center, 2011", "test": "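Knock-downs shielding fly cells from apoptosis caused by DNA damage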 (primary screen)", "cell system": "Drosophila Kc cells", "knock-down reagent": "long dsRNA against Drosophila genes, 0.5 µg dsRNA per well", "timing": "96 h (48 h knock-down, then 48 h drug)", "challenge": "doxorubicin 5 µg/ml for 48 h, added 48 h after dsRNA", "read-out": "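Luminescent ATP counts per replicate, not normalised, reflecting viable cells after 48 h dsRNA knock-down followed by 48 h of 5 µg/ml doxorubicin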", "reading the numbers": "raw ATP luminescence: higher = more viable cells, protection from doxorubicin", "rule for the call": "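z-score of 2 or more over plate mean in both duplicates, retained only when retests and separate dsRNAs confirm the protection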", "note": "In all, the deposit lists about 19,000 reagents; this is a random part of those that have a named target and a result. In the full data, 47 (0.25%) got an active call. 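Signals are raw, not normalised; exact z-scores behind calls not deposited; actives needed confirmation, so some wells reaching 2 SD are inactive.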 No sequences are given here."}
{"gene": "CG12540 (GeneID 32393)", "DRSC id": "DRSC19471", "raw ATP luminescence, replicate 1": 3.25e5, "raw ATP luminescence, replicate 2": 3.18e5, "call": "inactive"}
{"gene": "Mics1 (GeneID 40898)", "DRSC id": "DRSC12537", "raw ATP luminescence, replicate 1": 60293, "raw ATP luminescence, replicate 2": 50077, "call": "inactive"}
{"gene": "lin-52 (GeneID 31499)", "DRSC id": "DRSC18106", "raw ATP luminescence, replicate 1": 39340, "raw ATP luminescence, replicate 2": 39370, "call": "inactive"}
{"gene": "CG13049 (GeneID 39788)", "DRSC id": "DRSC09930", "raw ATP luminescence, replicate 1": 47400, "raw ATP luminescence, replicate 2": 42687, "call": "inactive"}
{"gene": "Gr22b (GeneID 117492)", "DRSC id": "DRSC20911", "raw ATP luminescence, replicate 1": 2.03e5, "raw ATP luminescence, replicate 2": 3.13e5, "call": "inactive"}
{"gene": "Nhe3 (GeneID 33939)", "DRSC id": "DRSC03380", "raw ATP luminescence, replicate 1": 44423, "raw ATP luminescence, replicate 2": 46570, "call": "inactive"}
{"gene": "Rfx (GeneID 41266)", "DRSC id": "DRSC16820", "raw ATP luminescence, replicate 1": 53673, "raw ATP luminescence, replicate 2": 55973, "call": "inactive"}
{"gene": "Gclc (GeneID 53581)", "DRSC id": "DRSC18666", "raw ATP luminescence, replicate 1": 32770, "raw ATP luminescence, replicate 2": 39410, "call": "inactive"}
{"gene": "CG12432 (retired record) (GeneID 32730)", "DRSC id": "DRSC19455", "raw ATP luminescence, replicate 1": 2.16e5, "raw ATP luminescence, replicate 2": 2.56e5, "call": "inactive"}
{"gene": "GstD4 (GeneID 48337)", "DRSC id": "DRSC16685", "raw ATP luminescence, replicate 1": 56457, "raw ATP luminescence, replicate 2": 62637, "call": "inactive"}
{"gene": "ATPsynD (GeneID 42291)", "DRSC id": "DRSC14093", "raw ATP luminescence, replicate 1": 43120, "raw ATP luminescence, replicate 2": 65460, "call": "inactive"}
{"gene": "CG14034 (GeneID 33751)", "DRSC id": "DRSC02359", "raw ATP luminescence, replicate 1": 27737, "raw ATP luminescence, replicate 2": 32813, "call": "inactive"}
{"gene": "PpD6 (GeneID 49780)", "DRSC id": "DRSC00774", "raw ATP luminescence, replicate 1": 23303, "raw ATP luminescence, replicate 2": 26480, "call": "inactive"}
{"gene": "CAH7 (GeneID 41238)", "DRSC id": "DRSC15524", "raw ATP luminescence, replicate 1": 54207, "raw ATP luminescence, replicate 2": 49787, "call": "inactive"}
{"gene": "CG13562 (GeneID 37797)", "DRSC id": "DRSC04200", "raw ATP luminescence, replicate 1": 82567, "raw ATP luminescence, replicate 2": 61510, "call": "inactive"}
{"gene": "dsf (GeneID 33823)", "DRSC id": "DRSC03524", "raw ATP luminescence, replicate 1": 31210, "raw ATP luminescence, replicate 2": 35310, "call": "inactive"}
{"gene": "CG9967 (GeneID 33414)", "DRSC id": "DRSC00742", "raw ATP luminescence, replicate 1": 50020, "raw ATP luminescence, replicate 2": 58333, "call": "inactive"}
{"gene": "Nepl5 (GeneID 33892)", "DRSC id": "DRSC03241", "raw ATP luminescence, replicate 1": 97810, "raw ATP luminescence, replicate 2": 61123, "call": "inactive"}
{"gene": "CG34126 (GeneID 318872)", "DRSC id": "DRSC02726", "raw ATP luminescence, replicate 1": 16680, "raw ATP luminescence, replicate 2": 18657, "call": "inactive"}

Reformatted: entries from further up
ATPsynD (GeneID 42291) [DRSC14093] — raw ATP luminescence, replicate 1 = 43120; raw ATP luminescence, replicate 2 = 65460; call = inactive
CG14034 (GeneID 33751) [DRSC02359] — raw ATP luminescence, replicate 1 = 27737; raw ATP luminescence, replicate 2 = 32813; call = inactive
